Results are given in words; binding and its absence hold for the method and conditions named. In cells and extracts the contact can be indirect. Some results given as binding are weak or reduced against the parent protein; the word gives no strength. Where a sequence is shown, tags or fusion partners need not be part of it.
Tests used:
Assay in all cases: co-IP; U2OS cells overexpressing KIF18B with a DDK tag (or Ctrl); 1% NP40 lysis buffer (150 mM NaCl, 50 mM Tris-HCl pH 7.4); ATF2, DDK, APC or β-catenin antibodies on protein A/G agarose, overnight with lysate; Western blot
[1] = target: T1, ATF2 (human (endogenous in U2OS)) (UniProt P15336)
T1 sequence: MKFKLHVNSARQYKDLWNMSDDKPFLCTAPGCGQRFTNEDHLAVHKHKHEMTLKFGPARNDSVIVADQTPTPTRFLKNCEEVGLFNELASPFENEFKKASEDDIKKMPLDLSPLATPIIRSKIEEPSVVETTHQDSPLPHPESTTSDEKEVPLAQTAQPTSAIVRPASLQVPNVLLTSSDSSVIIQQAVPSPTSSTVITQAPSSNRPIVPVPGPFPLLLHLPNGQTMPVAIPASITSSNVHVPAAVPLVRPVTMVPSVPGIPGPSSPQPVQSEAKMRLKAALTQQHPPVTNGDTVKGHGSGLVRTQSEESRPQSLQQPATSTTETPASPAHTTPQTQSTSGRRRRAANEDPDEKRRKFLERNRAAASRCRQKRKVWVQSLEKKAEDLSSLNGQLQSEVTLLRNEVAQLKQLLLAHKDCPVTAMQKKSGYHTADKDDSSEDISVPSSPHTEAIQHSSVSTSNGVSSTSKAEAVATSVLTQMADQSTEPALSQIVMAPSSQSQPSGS

The chains behind the UniProt entries cited, without tags or fusion partners.
UniProt P25054: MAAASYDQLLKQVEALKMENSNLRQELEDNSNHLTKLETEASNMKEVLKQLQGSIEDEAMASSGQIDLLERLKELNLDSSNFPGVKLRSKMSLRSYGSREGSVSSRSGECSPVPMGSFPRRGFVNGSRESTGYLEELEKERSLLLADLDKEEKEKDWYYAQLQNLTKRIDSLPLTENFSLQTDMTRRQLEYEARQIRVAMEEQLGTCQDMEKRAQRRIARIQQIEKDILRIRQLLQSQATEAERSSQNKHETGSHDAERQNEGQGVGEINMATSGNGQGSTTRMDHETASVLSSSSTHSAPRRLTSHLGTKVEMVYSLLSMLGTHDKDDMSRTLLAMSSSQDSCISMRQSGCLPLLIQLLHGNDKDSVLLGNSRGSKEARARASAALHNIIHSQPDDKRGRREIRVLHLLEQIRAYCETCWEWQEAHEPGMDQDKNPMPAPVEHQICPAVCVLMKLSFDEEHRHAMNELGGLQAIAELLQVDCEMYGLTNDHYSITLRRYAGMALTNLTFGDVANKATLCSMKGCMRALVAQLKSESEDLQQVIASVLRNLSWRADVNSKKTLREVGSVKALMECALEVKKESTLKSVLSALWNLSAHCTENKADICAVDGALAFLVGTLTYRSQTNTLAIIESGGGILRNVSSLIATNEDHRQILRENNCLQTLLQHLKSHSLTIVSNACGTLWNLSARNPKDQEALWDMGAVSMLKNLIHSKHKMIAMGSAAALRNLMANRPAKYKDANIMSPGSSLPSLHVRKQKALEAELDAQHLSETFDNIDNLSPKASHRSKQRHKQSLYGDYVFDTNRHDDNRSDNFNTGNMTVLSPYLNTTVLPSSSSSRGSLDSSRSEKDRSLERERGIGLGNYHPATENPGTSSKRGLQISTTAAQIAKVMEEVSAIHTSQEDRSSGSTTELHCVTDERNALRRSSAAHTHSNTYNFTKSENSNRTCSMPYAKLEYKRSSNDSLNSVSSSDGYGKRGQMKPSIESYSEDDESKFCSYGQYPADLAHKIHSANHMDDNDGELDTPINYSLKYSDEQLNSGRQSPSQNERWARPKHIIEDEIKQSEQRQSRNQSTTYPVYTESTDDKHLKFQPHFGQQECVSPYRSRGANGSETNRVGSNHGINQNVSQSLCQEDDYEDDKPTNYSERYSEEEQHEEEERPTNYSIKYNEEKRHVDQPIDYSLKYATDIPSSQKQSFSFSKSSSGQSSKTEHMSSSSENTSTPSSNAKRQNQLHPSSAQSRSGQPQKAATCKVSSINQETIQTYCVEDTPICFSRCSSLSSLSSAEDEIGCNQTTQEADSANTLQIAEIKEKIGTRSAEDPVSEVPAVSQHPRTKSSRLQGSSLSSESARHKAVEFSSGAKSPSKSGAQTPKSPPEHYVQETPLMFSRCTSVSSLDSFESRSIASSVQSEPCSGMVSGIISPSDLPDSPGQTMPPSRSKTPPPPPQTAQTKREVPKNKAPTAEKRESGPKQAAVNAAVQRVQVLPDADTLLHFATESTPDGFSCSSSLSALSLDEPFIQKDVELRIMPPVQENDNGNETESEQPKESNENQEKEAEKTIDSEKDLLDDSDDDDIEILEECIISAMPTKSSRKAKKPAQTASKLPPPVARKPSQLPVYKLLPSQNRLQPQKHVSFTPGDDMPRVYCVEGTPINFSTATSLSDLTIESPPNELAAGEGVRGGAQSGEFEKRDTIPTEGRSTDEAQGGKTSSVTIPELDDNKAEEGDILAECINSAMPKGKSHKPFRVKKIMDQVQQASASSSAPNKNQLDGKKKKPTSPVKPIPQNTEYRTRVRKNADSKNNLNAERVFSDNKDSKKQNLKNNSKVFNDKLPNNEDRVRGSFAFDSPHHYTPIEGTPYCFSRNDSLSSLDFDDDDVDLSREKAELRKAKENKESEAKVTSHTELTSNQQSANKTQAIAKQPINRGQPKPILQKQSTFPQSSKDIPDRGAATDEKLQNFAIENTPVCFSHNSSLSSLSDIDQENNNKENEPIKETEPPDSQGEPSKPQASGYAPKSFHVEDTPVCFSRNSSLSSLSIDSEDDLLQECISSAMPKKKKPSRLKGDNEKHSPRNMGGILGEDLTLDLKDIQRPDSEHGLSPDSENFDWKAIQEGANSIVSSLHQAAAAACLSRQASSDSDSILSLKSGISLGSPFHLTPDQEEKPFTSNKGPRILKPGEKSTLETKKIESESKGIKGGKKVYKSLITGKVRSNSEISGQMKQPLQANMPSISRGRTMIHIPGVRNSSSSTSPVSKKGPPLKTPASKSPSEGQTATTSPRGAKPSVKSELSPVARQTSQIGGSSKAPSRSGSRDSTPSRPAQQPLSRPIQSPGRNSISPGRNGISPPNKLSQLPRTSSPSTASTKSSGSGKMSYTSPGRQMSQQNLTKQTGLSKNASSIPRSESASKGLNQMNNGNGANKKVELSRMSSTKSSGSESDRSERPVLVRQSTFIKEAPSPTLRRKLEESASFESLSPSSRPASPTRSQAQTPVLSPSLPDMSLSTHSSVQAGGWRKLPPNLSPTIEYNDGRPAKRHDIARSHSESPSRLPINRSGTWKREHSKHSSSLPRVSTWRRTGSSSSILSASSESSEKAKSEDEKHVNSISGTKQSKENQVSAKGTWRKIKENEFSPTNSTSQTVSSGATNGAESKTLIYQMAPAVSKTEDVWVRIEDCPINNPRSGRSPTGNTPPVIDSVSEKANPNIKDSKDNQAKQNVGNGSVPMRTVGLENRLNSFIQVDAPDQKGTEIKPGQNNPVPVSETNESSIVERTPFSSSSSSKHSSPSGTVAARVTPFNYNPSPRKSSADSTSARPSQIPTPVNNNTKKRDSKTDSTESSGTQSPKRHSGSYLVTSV
UniProt P35222: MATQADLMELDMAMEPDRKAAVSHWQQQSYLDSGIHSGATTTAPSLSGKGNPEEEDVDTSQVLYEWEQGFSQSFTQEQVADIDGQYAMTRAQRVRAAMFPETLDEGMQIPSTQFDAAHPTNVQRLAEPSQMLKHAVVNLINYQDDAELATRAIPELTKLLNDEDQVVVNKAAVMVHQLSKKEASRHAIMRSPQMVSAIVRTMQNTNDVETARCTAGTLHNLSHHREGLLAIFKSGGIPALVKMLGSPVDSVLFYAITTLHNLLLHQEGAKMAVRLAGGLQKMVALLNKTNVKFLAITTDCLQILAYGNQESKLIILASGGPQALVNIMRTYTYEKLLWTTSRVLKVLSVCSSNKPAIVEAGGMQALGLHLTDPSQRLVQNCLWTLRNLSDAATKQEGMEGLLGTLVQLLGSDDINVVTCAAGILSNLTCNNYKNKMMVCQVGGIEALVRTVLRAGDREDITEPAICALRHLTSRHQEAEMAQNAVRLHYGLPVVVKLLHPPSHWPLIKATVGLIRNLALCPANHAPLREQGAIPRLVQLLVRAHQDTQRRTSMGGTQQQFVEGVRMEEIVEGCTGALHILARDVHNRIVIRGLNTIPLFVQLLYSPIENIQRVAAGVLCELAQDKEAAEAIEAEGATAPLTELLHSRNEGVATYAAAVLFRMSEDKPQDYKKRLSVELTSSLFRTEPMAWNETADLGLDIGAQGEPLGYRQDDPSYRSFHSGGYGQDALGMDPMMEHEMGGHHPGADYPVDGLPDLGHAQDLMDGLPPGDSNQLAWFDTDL

[2] = target: adenomatous polyposis coli (APC) tumor suppressor (human (endogenous in U2OS)) (UniProt P25054)
[3] = target: β-catenin (human (endogenous in U2OS)) (UniProt P35222)

B1: KIF18B with a DDK tag (protein, UniProt Q86Y91 1-852)
chain: MAVEDSTLQVVVRVRPPTPRELDSQRRPVVQVVDERVLVFNPEEPDGGFPGLKWGGTHDGPKKKGKDLTFVFDRVFGEAATQQDVFQHTTHSVLDSFLQGYNCSVFAYGATGAGKTHTMLGREGDPGIMYLTTVELYRRLEARQQEKHFEVLISYQEVYNEQIHDLLEPKGPLAIREDPDKGVVVQGLSFHQPASAEQLLEILTRGNRNRTQHPTDANATSSRSHAIFQIFVKQQDRVPGLTQAVQVAKMSLIDLAGSERASSTHAKGERLREGANINRSLLALINVLNALADAKGRKTHVPYRDSKLTRLLKDSLGGNCRTVMIAAISPSSLTYEDTYNTLKYADRAKEIRLSLKSNVTSLDCHISQYATICQQLQAEVAALRKKLQVYEGGGQPPPQDLPGSPKSGPPPEHQPCTPELPAGPRALQEESLGMEAQVERAMEGNSSDQEQSPEDEDEGPAEEVPTQMPEQNPTHALPESPRLTLQPKPVVGHFSARELDGDRSKQLALKVLCVAQRQYSLLQAANLLTPDMITEFETLQQLVQEEKIEPGAEALRTSGLARGAPLAQELCSESIPVPSPLCPEPPGYTGPVTRTMARRLSGPLHTLGIPPGPNCTPAQGSRWPMEKKRRRPSALEADSPMAPKRGTKRQRQSFLPCLRRGSLPDTQPSQGPSTPKGERASSPCHSPRVCPATVIKSRVPLGPSAMQNCSTPLALPTRDLNATFDLSEEPPSKPSFHECIGWDKIPQELSRLDQPFIPRAPVPLFTMKGPKPTSSLPGTSACKKKRVASSSVSHGRSRIARLPSSTLKRPAGPLVLPELPLSPLCPSNRRNGKDLIRVGRALSAGNGVTKVS
binding [1]: binds | binding [2]: binds | binding [3]: no binding
